Results on one molecule are retold here after paper PMC7518614.

These are yes or no findings as the source states them, for the method shown. Binding seen in cells or lysates may run through a third protein. Here binding means that the protein was enriched with, or labelled near, the bait; the list need not be complete.

For this experiment, the target named is T1, HORMAD1 (mouse (endogenous in testis)) (UniProt Q9D5T7).
T1 sequence: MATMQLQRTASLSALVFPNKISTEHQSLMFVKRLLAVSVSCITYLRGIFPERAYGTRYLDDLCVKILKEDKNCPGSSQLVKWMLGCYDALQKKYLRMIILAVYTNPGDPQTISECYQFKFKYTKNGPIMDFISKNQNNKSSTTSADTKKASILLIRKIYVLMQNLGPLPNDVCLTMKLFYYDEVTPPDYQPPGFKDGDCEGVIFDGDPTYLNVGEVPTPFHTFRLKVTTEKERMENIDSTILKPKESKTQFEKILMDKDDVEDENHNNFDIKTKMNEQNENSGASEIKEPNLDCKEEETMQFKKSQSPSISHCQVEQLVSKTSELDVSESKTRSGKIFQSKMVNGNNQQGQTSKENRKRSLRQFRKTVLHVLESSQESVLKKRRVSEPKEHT
In words: affinity purification with mass spectrometry; IP with rabbit anti-HORMAD1 antibody cross-linked to protein A-Dynabeads from chromatin-bound extracts (400 mM KCl) of WT mouse testes enriched for preleptotene/leptotene spermatocytes (WIN 18,446 then RA); washed with high salt extraction buffer; LC-MS/MS; proteins of the control IgG IP subtracted.

B1: PDS5A (protein, UniProt Q6A026 1-1332)
chain: MDFTQPKPATALCGVVSADGKIAYPPGVKEITDKITTDEMIKRLKMVVKTFMDMDQDSEDEKQQYLPLALHLASEFFLRNPNKDVRLLVACCLADIFRIYAPEAPYTSHDKLKDIFLFITRQLKGLEDTKSPQFNRYFYLLENLAWVKSYNICFELEDCNEIFIQLFRTLFSVINNSHNTKVQMHMLDLMSSIIMEGDGVTQELLDSILINLIPAHKNLNKQSFDLAKVLLKRTVQTIEACIANFFNQVLVLGRSSVSDLSEHVFDLIQELFAIDPQLLLSVMPQLEFKLKSNDGEERLAVVRLLAKLFGSKDSDLATQNRPLWQCFLGRFNDIHVPVRLESVKFASHCLMNHPDLAKDLTEYLKVRSHDPEEAIRHDVIVTIITAAKRDLALVNDQLLGFVRERTLDKRWRVRKEAMMGLAQLYKKYCLHGEAGKEAAEKVSWIKDKLLHIYYQNSIDDKLLVEKIFAQYLVPHNLETEERMKCLYYLYASLDPNAVKALNEMWKCQNMLRSHVRELLDLHKQPTSEANCSAMFGKLMTIAKNLPDPGKAQDFVKKFNQVLGDDEKLRSQLELLISPTCSCKQADVCVREIARKLANPKQPTNPFLEMVKFLLERIAPVHIDSEAISALVKLMNKSIEGTADDEEEGVSPDSAIRSGLELLKVLSFTHPTSFHSAETYESLLQCLRMEDDKVAEAAIQIFRNTGHKIETDLPQIRSTLIPILHQKAKRGTPHQAKQAVHCIHAIFSNKEVQLAQIFEPLSRSLNADVPEQLITPLVSLGHISMLAPDQFASPMKSVVANFIVKDLLMNDRSTGEKNGKLWSPDEEVSPEVLAKVYLLRLLVRWLLGMKNNQSKSANSTLRLLSAMLVSEGDLTEQKRISKSDMSRLRLAAGSAIMKLAQEPCYHEIITPEQFQLCALVINDECYQVRQIFAQKLHKALVKLLLPLEYMAIFALCAKDPVKERRAHARQCLLKNISIRREYIKQNPMATEKLLSLLPEYVVPYMIHLLAHDPDFTRSQDVDQLRDIKECLWFMLEVLMTKNENNSHAFMKKMAENIKLTRDAQSPDESKTNEKLYTVCDVALCVINSKSALCNADSPKDPVLPMKFFTQPEKDFCNDKSYISEETRVLLLTGKPKPTGVLGTVNKPLSATGRKPYVRSAGTETGSNINANSELSPSAGSRSREQSSEASETGVSENEENPVRIISVTPVKNIDTVKNKEINSDQSTQGNISSDRGKKRIVTAAGAENIQKPDEKVDESGPPAPSKPRRGRRPKSESQGNATKNDDLNKPVSKGRKRAAGSQESLEAGNAKAPKLQDGAKKAVPAERQIDLQR
For the molecule B1, the binding entry is on record as “binds”.
